Measurements taken from PubChem BioAssay AID1458 (National Center for Advancing Translational Sciences (NCATS), 2008).
About 5,900 (2.8%) of roughly 210,000 compounds were called active. Not shown: some 5% with an inconclusive outcome. The call rests on the fitted dose curve; in most records, active means well fitted activation curve with a large enough effect; inconclusive means small, poorly fitted or top-dose-only effect; inactive means no such curve, though single readings can be large or run the other way. This is a selection; strong and weak results do not stand in their true shares. Entries without a call were filed so in the source.

assay: qHTS Assay for Enhancers of SMN2 Splice Variant Expression; details: HEK293 SMN2-luciferase splicing reporter, luminescence, 30-36 h; activity change, positive = activation: at 46.1 µM (top of the series) unless noted; further: nearly all actives have a fitted effect of over 55% in size; on activity change, positive = activation: % of control where 0% means no effect
Text: NIH Chemical Genomics Center [NCGC] NIH Molecular Libraries Probe Production centers Network [MLPCN] MLPCN Grant: R03 MH084179-01 Assay Submitter (PI): Elliot Androphy NCGC Assay Overview: Spinal muscular atrophy (SMA) is caused by insufficient levels of the survival motor neuron protein SMN. The SMN locus on chromosome 5q13 contains two inverted copies of SMN called SMN1 and SMN2 which are 99% identical at the amino acid level. SMN1 is a fully functional protein and SMN2 skips exon 7 90% of the time. Skipping of exon 7 produces non-functional protein product. 10% of the SMN2 protein includes exon 7 and is fully functional. In the SMA disease state, mutations in the SMN1 locus are the cause of the disease state. Because only 10% of SMN2 is of the fully functional form, it is not sufficient to overcome the deficiency produced by the loss of the SMN1 product. A therapy that either increase the amount of SMN2 product made or to increase the inclusion of exon 7 has been proposed for the treatment of SMA. We have designed an assay to identify small molecules that can increase the amount of functional SMN2 product by appending a luciferase reporter gene after the native SMN2 gene, such that inclusion of exon 7 in the expressed product places the luciferase sequence in frame, thus generating functional luciferase enzyme.
NCGC Assay Protocol Summary: This screen utilizes a luciferase reporter gene assay, combining the promoter and splicing based cassettes in tandem with the major portion of the native SMN2 cDNA, and then transfected into HEK293 cells. Compounds that increase luciferase signal presumably enhance expression of the functional SMN2 splice variant. Passaging media contained DMEM w/ glutamax (+phenol red) 10% FCS, 1x pen/strep, 200 ug/ml hygro, 1x sodium pyruvate. Assay media contained DMEM w/ glutamax (-phenol red) 10% FCS, 1x pen strep, 1x pyruvate Sequence, Parameter, Value, Description (1) Cells, […], 2000 cells/well, 1536 TC treated White solid bottom plate (2) Time, 10-12 hours, 37C 5% CO2 (3) Compound, 23 nl, MLSMR Library (4) Control Compound, 23 nL, Sodium butyrate st 4.5mM (final) conc (5) Time, 30-36 hours, 37C 5% CO2 (6) Reagent, 3 ul, One Glo (TM) from Promega (7) Time, 5-15 minutes, Room temp (8) Detector, Viewlux: luminescent read, 60 second integration, high speed 2x binning Keywords: Spinal muscular atrophy, SMA, SMN2, high throughput screening, MLSMR, MLPCN, NIH Roadmap, qHTS and NCGC
Potency means the concentration at half of the fitted maximal effect.

SMILES | activity change, positive = activation | Potency
C=CCNC(=O)NC(=O)COC(=O)/C(C#N)=C/c1cc(C)n(CC(C)C)c1C | -37.2% | –
CCN1CCCc2cc(CN(CCN3CCOCC3)C(=S)Nc3ccc(OC)cc3)ccc21 | -0.499% | –
COc1ccc(C(=O)C[n+]2ccccc2C)cc1 | -46.7% | –
CCCSc1ncc(Cl)c(C(=O)N2CCN(c3ccc(OC)cc3)CC2)n1 | inactive: -32.9% | –
O=C(O)C[C@H](NC(=O)CP(=O)(O)O)C(=O)O.[NH-][C@@H]1CCCC[C@@H]1[NH-].[Pt] | – | active: 2.51 µM
CCCCN1C(=O)c2ccc(C(=O)NC3=NCCS3)cc2C1=O | 34% | –
COc1ccc(/C=C/c2nnc(NC(=O)COc3ccc(C)cc3)s2)cc1 | – | active: 5.01 µM
c1ccc2c(c1)CCN(c1ncnc3c1[nH]c1ccccc13)C2 | -74.5% | –
C/C(=C\C(=O)c1ccccc1)Nc1ccc(O)cc1 | 47.9% | –
COc1ccc(Cc2nc(C(=O)Nc3ccc(F)cc3)cs2)cc1 | inactive: -32% | –
CCOC(=O)c1cnn(-c2ccccn2)c1N | 53.8% | –
COc1cc2[nH]c(=S)nc(NCCCOC(C)C)c2cc1OC | -54.2% | –
CCCn1c(CC)nc([N+](=O)[O-])c1Sc1ccc(F)cc1 | -43.5% | –
COc1ccc(-c2csc(-n3ncc(-c4ccccn4)c3N)n2)cc1 | inactive: -52% | –
O=C(COc1ccccc1)Nc1nc(-c2ccc(S(=O)(=O)N3CCOCC3)cc2)cs1 | inactive: -38.1% | –
COC(=O)Cc1ccc(N(Cc2ccccc2F)S(=O)(=O)c2ccc(C)cc2)cc1 | -33.5% | –
COc1ccc(CCNC(=O)C(=O)NCC2OCCN2S(=O)(=O)c2ccc(Br)cc2)cc1 (centres undefined) | -79.2% | –
O=C(CCCC(=O)N(CC(=O)NC1CCCCC1)Cc1ccccc1)Nc1ccccn1 | 38.6% | –
Cc1csc(NC(=O)CSc2nncn2C)n1 | 35.6% | –
Nc1cc(-c2nc3ncccc3o2)ccc1Cl | – | active: 10 µM
Oc1ccccc1C1Nc2cccc3cccc(c23)N1 | -44.7% | –
Cc1cc(C)nc(SCC(=O)Nc2ncc(Cc3cccc(Cl)c3Cl)s2)n1 | -29.5% | –

SMILES | activity change, positive = activation | Potency
CC(=O)C1=C(c2ccc(Br)cc2)C(=O)c2ccccc2C1=O | inactive: -109% | –
COC(=O)c1ccccc1NC(=O)COC(=O)c1cccnc1 | 33.5% | –
CCC1CN(C(=O)Nc2ccc(C)cc2)c2cc(C)ccc2O1 (centres undefined) | inactive: -32% | –
COc1ccccc1/C=C/C(=O)c1ccc(NC(C)=O)cc1 | -31.5% | –
CCOC(=O)c1sc(NC(=O)CSc2n[nH]c(-c3ccncc3)n2)c(C#N)c1C | -30.5% | –
Cc1nn(S(=O)(=O)c2ccc(Cl)cc2)c(C)c1Sc1ccc([N+](=O)[O-])cc1 | -65.6% | –
Cc1ccc(NC(=O)CN(c2ccccc2)S(=O)(=O)N(C)C)cc1Cl | inactive: -33% | –
COCCCN1C(=O)CC(C(=O)OC)=C1C | -38.3% | –
Cc1ccc(COc2cccc3c2CCN(Cc2ccc(F)cc2)C3=O)cc1 | -63.8% | –
Cc1nn(-c2ccccc2C(=O)O)c(=O)c2ccccc12 | 31% | –
COC(=O)CSc1nnc(-c2sc3cc(OC)ccc3c2Cl)n1C | 44.5% | –
COc1ccc(S(=O)(=O)Nc2ccccn2)c(C)c1C | -38.5% | –
O=C(N=Nc1c(O)[nH]c2ccc(Br)cc12)c1cc(-c2cccs2)nc2ccccc12 | inactive: -67.7% | –
CN(C(=O)c1ccc2c(Cl)c3c(nc2c1)CCC3)c1ccccc1 | 61.5% | –
CC(C)c1ccc(NC(=O)COC(=O)C2=COCCO2)cc1 | 44% | –
Cc1ccc(-c2nn(C(C)(C)C)c3ncnc(N)c23)cc1 | 37.7% | –
C(=C\c1ccccc1)/CN1CCN(c2ncnc3c2oc2ccccc23)CC1 | -46.4% | –
CN(C=C1C(=O)CC(C)(C)CC1=O)CCN1CCNCC1 | 23.2% | –
CC(=O)OCc1cc(=O)n(C)c(=O)n1C | 47.1% | –
Cc1cccc(-c2c3c(=O)n(C)c(=O)n(C)c3cn2C2CCCCC2)c1 | -50.3% | –
CCN=c1sc(C(=O)OC)cc(=O)n1CC | 23.9% | –
CCCC(=O)O[C@]1(C(=O)CCl)[C@@H](C)C[C@H]2[C@@H]3CCC4=CC(=O)C=C[C@]4(C)[C@@]3(F)C(=O)C[C@@]21C | inactive: -62.9% | –

SMILES | activity change, positive = activation | Potency
COc1ccc(NC(=O)/C(C#N)=C\c2cc(C)n(-c3ccc(Oc4ccc([N+](=O)[O-])cn4)cc3)c2C)cc1 | inactive: -55.8% | –
O=CN1CCC(=O)N(Cc2ccccc2)c2ccccc21 | 40.6% | –
CC(=O)c1c(C)nc2ccccn12 | 32.6% | –
O=C(CCc1nc2ccccc2c(=O)[nH]1)N1CCN(C/C=C/c2ccccc2)CC1 | -41% | –
CCOc1ccc(C(=O)Nc2ccccc2C#N)cc1[N+](=O)[O-] | -41.5% | –
CCc1ccccc1NC(=O)Nc1cc(F)ccc1F | inactive: -35.4% | –
N#C/C(=C\c1ccc2c(c1)OCCO2)C(=O)NC1CCCCC1 | 104% | –
CCN(CC)c1ccc2cc(-c3nnc(-c4ccncc4)o3)c(=O)oc2c1 | – | active: 11.2 µM
CCCN1Cc2cccc(C(=O)Nc3ccc4c(c3)OCO4)c2C1=O | 46.3% | –
N#CC1=C(SCc2ccccc2)NC(=O)C(C#N)C12CCCC2 (centres undefined) | -117% | –
CN1C(=O)CSc2ccc(NC(=O)N3CCc4ccccc43)cc21 | 42.2% | –
O=S(=O)(c1ccccc1)N1CCC2(CC1)CN(c1ccccn1)C2 | inactive: -44.3% | –
CCCCOc1nc2ccccc2nc1C(C#N)S(=O)(=O)c1ccccc1 (centres undefined) | -66.2% | –
O=C(CN1CCN(Cc2ccc3c(c2)OCO3)CC1)Nc1cc(S(=O)(=O)N2CCCC2)ccc1Cl | inactive: -58% | –
FC(F)(F)c1ccccc1NC(=S)N1CCN(Cc2ccc3c(c2)OCO3)CC1 | -49.1% | –
O=C(Cc1ccccc1)N/N=C/c1ccc([N+](=O)[O-])s1 | -59.3% | –
Cc1cc(C#N)c2ccccc2n1 | 28.8% | –
O=C(Nc1ccc(Oc2ccccc2)cc1)c1cnc2n(c1=O)CCS2 | inactive: -108% | –
CCOC(=O)/C(C#N)=C/c1cc(C)n(-c2ccccc2)c1C | inactive: -73.4% | –
CC(C)Oc1ccccc1-c1nc(SCC(=O)O)n[nH]1 | 21.7% | –
O=C(CSc1nnc(-c2cccs2)o1)N1CCCCC1 | – | active: 12.6 µM
O=S(=O)(c1ccc(Cl)c(NC(=S)N/N=C/c2ccc(O)cc2)c1)N1CCOCC1 | inactive: -62.8% | –

SMILES | activity change, positive = activation | Potency
CCC(C)c1ccc2oc(-c3ccc(NC(=O)Cn4cnc5c(=O)n(C)c(=O)n(C)c54)cc3)nc2c1 (centres undefined) | inactive: -48% | –
CNc1nc(-c2ccccn2)nnc1-c1ccccc1 | inactive: -89.5% | –
Cc1cc(C)nc(N2CCC(C(=O)NCC3CCCCC3)CC2)n1 | 5.08% | –
O=C(Nc1ccc(F)c(F)c1)NC1CCCCC1 | – | active: 4.47 µM
COc1cc2ccccc2cc1C(=O)O | 42.2% | –
CCOc1ccccc1-n1c(SCC(N)=O)nnc1-c1cccnc1 | 34.3% | –
Cc1ccccc1CN1CCN(C(=O)c2cccc(F)c2)CC1 | 31.4% | –
Cc1nnc(NC(=O)CCCN2C(=O)c3ccccc3C2=O)s1 | 33% | –
Cc1cccnc1Nc1nc(-c2ccc(O)cc2)cs1 | – | active: 25.1 µM
COc1ccc(-c2cc(C(=O)c3c(N)n(C)c(=O)n(C)c3=O)c3ccccc3n2)cc1OC | 195% | –
COc1cc(OC)cc(C(=O)NCC(=O)OCc2nc3ccccc3s2)c1 | 135% | –
CC(C(=O)NC1CCCC1)N(C(=O)c1ccc(-c2ccccc2)[nH]1)c1ccccc1F (centres undefined) | -42.7% | –
CCOc1ccc2[nH]c3c(N4CCN(c5ccccn5)CC4)ncnc3c2c1 | inactive: -38.8% | –
Cc1cc2cc(CCNC(=O)c3cccs3)c(=O)[nH]c2cc1C | – | active: 12.6 µM
COc1ccc(-n2ncc3c(N4CCCCC4)ncnc32)cc1 | inactive: -111% | –
O=C(Nc1ccc(CN2CCOCC2)cc1)c1ccc(-c2ccc(Br)cc2)o1 | inactive: -59.6% | –
O=C1Nc2ccccc2/C1=N\N=C\C1=C(N2CCOCC2)C(=C\c2ccccc2)/CC1 | -39.3% | –
CCCCC1(C)OC(=O)C(=Cc2ccc(SC)cc2)C(=O)O1 (centres undefined) | 1.98% | –
CCN(CC)c1ccc(/C=N/NC(=O)c2ccc(Br)o2)cc1 | – | active: 11.2 µM
CCc1ccc(Oc2cc(C)nc(N)n2)cc1 | – | active: 10 µM
COC(=O)c1cccc(NC(=O)CCc2ccccc2)c1 | 51.1% | –
CCOC(=O)C1CCN(C(=O)c2oc3ccc(S(=O)(=O)N4CC(C)CC(C)C4)cc3c2C)CC1 (centres undefined) | inactive: -30.1% | –

5 compounds from above, sorted by count of non-hydrogen atoms, smallest number first.
SMILES | activity change, positive = activation | Potency
COc1cc2ccccc2cc1C(=O)O | 42.2% | –
O=C(Nc1ccc(F)c(F)c1)NC1CCCCC1 | – | active: 4.47 µM
CNc1nc(-c2ccccn2)nnc1-c1ccccc1 | inactive: -89.5% | –
CCCCC1(C)OC(=O)C(=Cc2ccc(SC)cc2)C(=O)O1 (centres undefined) | 1.98% | –
Cc1cc(C)nc(N2CCC(C(=O)NCC3CCCCC3)CC2)n1 | 5.08% | –

Following part

SMILES | activity change, positive = activation | Potency
N/C(=N\OC(=O)CCC1CCCC1)c1ccc([N+](=O)[O-])cc1 | -44.7% | –
CCOC(=O)CSC1=NC(=O)/C(=C\c2ccc(Cl)cc2)S1 | -72.6% | –
Cc1cnc(NC(=O)c2sc3ccccc3c2Cl)s1 | – | active: 1 µM
O=C(Oc1c(CN2CCOCC2)cc(Cl)c2cccnc12)c1ccccc1 | inactive: -86.2% | –
COc1ccc(OC)c(C(O)c2coc3ccc(O)c(CN(C)C)c23)c1 (centres undefined) | 36.6% | –
Cc1ccc(-c2nnc(-c3ccc(Br)cc3)o2)o1 | – | active: 12.6 µM
Cc1ccc(S(=O)(=O)n2nc(-c3ccco3)nc2SCc2ccccc2)cc1 | – | active: 15.8 µM
CCCCC(=O)Nc1ccc(NC(=O)c2ccccc2OC)cn1 | 35.9% | –
Cc1ccc(S(=O)(=O)Nc2ccc(Br)cc2C(NCC(=O)O)c2ccccc2)cc1 (centres undefined) | 65% | –
COc1ccc(CN2COc3ccc4c(-c5ccccc5)cc(=O)oc4c3C2)cc1 | 45.9% | –
O=C1CCN(C(=O)c2ccccc2)C2CCCCC12 (centres undefined) | 32.3% | –
O=C(c1ccc(Br)cc1)c1cc([N+](=O)[O-])ccc1N1CCCCC1 | -33.9% | –
CCOC(=O)C1CCCN(C(=O)c2cc(-c3ccccc3)on2)C1 (centres undefined) | – | active: 22.4 µM
Cc1cc(C(=O)CCl)c(C)n1-c1cccc(S(=O)(=O)N2CCOCC2)c1 | inactive: -43.6% | –
CCOC(=O)C1CCCN(CCC(=O)Nc2ccc3c(c2)CCC3)C1 (centres undefined) | 34% | –
COc1ccc(C(=O)Nc2nc3ccc(S(C)(=O)=O)cc3s2)cc1OC | 31.7% | –
O=C(NNC(=O)C1CC1c1ccccc1)c1cccc([N+](=O)[O-])c1 (centres undefined) | 12.8% | –
Cc1cnc(NC(=O)c2cncc(Br)c2)s1 | 283% | –
CO/N=C/C(C#N)=C/c1ccc(OC)cc1 | 58.9% | –
Cc1ccc(SCCC(=O)OCC(=O)NCC2CCCCC2)cc1 | 32.1% | –
Cc1ccc(S(=O)(=O)N[C@@H](Cc2ccccc2)C(=O)CCl)cc1 | – | inactive
